Values scatter widely in this assay.
B1: human tRNA-Pro; a variant is named by its letters at N, in order (parent)
chain: GGCTCGTTGGTCTAGNGGTATGATTCTCGCTTAGGGTGCGAGAGGTCCCGGGTTCNNATCCCGGACGAGCCC

Legend:
[1] = variants of: B1; test: tRNA Pol-III promoter activity, log2 (circRNA frequency / plasmid DNA frequency) (log2 ratio); higher = stronger promoter activity; details: HEK293T; construct: no Pol-II promoter ((-)CMV library)
[2] = variants of: B1; test: tRNA 3' processing efficiency (processed reads / all reads, maximum-likelihood estimate) (fraction); higher = more efficient 3' processing; details: HEK293T; construct: no Pol-II promoter ((-)CMV library)
[3] = variants of: B1; test: tRNA 5' processing efficiency (processed reads / all reads, maximum-likelihood estimate) (fraction); higher = more efficient 5' processing; details: HEK293T; construct: CMV Pol-II promoter ((+)CMV library, decapped)

Variant	tRNA Pol-III promoter activity (log2) [1]	tRNA 3' processing efficiency [2]	tRNA 5' processing efficiency [3]
CAG A14G G15A	7.39	0.64	–
AAG G15A	3.65	0.22	–
GAG G9T A14T	5.03	0.25	–
GAG A14T T59C	2.86	0.25	–
AAG A14T	4	0.2	–
AAG A58T	2.9	0.2	–
TAG G9A	2.85	0.22	–
TAG G9T	2.31	0.6	–
GAG A14G T19G	2.78	0.16	–
GAG A14G T19A	4.4	0.36	–
GAG A14G T19C	8.1	0.67	–
GAG G9A A20T	2.79	0.5	–
GAG A14T G18A T19G	3.08	0.2	–
GAG A14C G15T G18C	6.51	0.5	–
AAG G9T A14T G17T	5.53	0.67	–
TAG G9A A14C	3.93	0.25	–
GAG G9T A58G	0.758	0.5	–
GAG G9T A58T	2.25	0.4	–
GAG A14C	2.69	0.4	–
GAG A14G	2.25	0.32	–
GAG A14T	2.04	0.29	–
GAG A14T T53A	3.62	0.25	–
GAG A20C T53A	3.68	0.4	–

Variant	tRNA Pol-III promoter activity (log2) [1]	tRNA 3' processing efficiency [2]	tRNA 5' processing efficiency [3]
GAG G9A	1.75	0.38	–
GAG G9T	0.287	0.56	–
GAG G9C	0.135	0.43	–
CAG A14C	3.79	0.25	–
CAG A14T	4.36	0.26	–
CAG A14G	2.55	0.25	–
GAG A14T T53A A58T	4.34	0.25	–
GAG G15C A20G	4.68	0.73	–
GAG A58T T59A	4.13	0.25	–
GAG A20G	0.557	0.5	–
GAG A20T	1.01	0.38	0.11
GAG A20C	2.37	0.23	–
GAG A20T A58G	2.06	0.35	–
AAG A20T A58T	3.71	0.17	–
TAG G15C A58G	8.63	0.19	–
GAG C55T	-0.692	0.5	–
GAG C55G	1.57	0.78	0.33
TAG A14C	3.57	0.43	–
TAG A14G	4.04	0.18	–
TAG A14T	2.16	0.14	–
GAG A14T T19G	3.36	0.38	–
GAG A14C G18A	4.68	0.36	–
GAG A14G A58T	4.08	0.09	–

Variant	tRNA Pol-III promoter activity (log2) [1]	tRNA 3' processing efficiency [2]	tRNA 5' processing efficiency [3]
GAG G15A T59C	5.81	0.08	–
GAG G15A G18T	3.21	0.5	–
GAG A14G T53A	3.94	0.29	–
GAG A14G T59C	4.93	0.15	–
TAG	3.1	0.4	–
GAG A14G G15A A58G	4.53	0.33	–
GAG G9A A14G G15T	4.03	0.5	–
GAG A58G T59A	5.53	0.5	0.33
GAG A58G T59G	3.97	0.44	–
TAG A14T A20G	6.26	0.2	–
GAG G9A A58C	3.61	0.25	–
GAG A14C A58C	5.93	0.25	–
GAG A14C A58G	3.79	0.38	–
GAG A14C A58T	3.94	0.25	–
GAG G15A A20T	2.23	0.25	–
CAG G15C	4.66	0.35	–
CAG G15A	4.75	0.57	–
AAG G9A	1.85	0.25	–
TAG A58C	3.85	0.73	0.2
TAG A58T	2	0.4	–
TAG A58G	3.26	0.3	–
CAG A14G T59C	7.94	0.03	–
GAG A14T G17C	2.05	0.11	–

Variant	tRNA Pol-III promoter activity (log2) [1]	tRNA 3' processing efficiency [2]	tRNA 5' processing efficiency [3]
TAG A20T T59G	5.93	0.25	–
GAG G9A A14G	2.86	0.25	0.6
GAG A58T	1.54	0.3	–
GAG A58C	1.8	0.07	0.29
GAG A58G	2.46	0.45	–
GAG A14T G18T	2.18	0.4	–
GAG A14T G18A	3.61	0.27	–
GAG G15A	0.643	0.43	–
GAG G15C	2.82	0.32	–
GAG A14C T19A	4.75	0.14	–
GAG A14C T19C	4.61	0.5	–
GAG A20G T59G	3.34	0.25	–
GAG G15A G17T	7.18	0.09	–
GAG G15A T19G A58C	5.51	0.33	–
AAG A20T	5.67	0.5	–
TAG C55T	2.11	0.4	–
CAG A14G A58G	5.25	0.2	–
GAG G9A T59C	3.77	0.2	–
GAG A20G A58T	5.45	0.62	–
GAG A20G A58C	3.08	0.2	–
CAG G9A	4.03	0.5	–
GAG G9A T19A	1.84	0.25	–
TAG A20T	3.13	0.25	–

Variant	tRNA Pol-III promoter activity (log2) [1]	tRNA 3' processing efficiency [2]	tRNA 5' processing efficiency [3]
TAG A20C	4.85	0.37	–
TAG A14T T19C	5.2	0.56	–
CAG A58T	4.27	0.21	–
CAG A58G	4.34	0.36	–
GAG A20T A58G T59A	7.1	0.44	–
GAG G9A A14T T53C	3.36	0.6	–
GAG A14T A58C	3.46	0.2	–
GAG A14T A58G	3.53	0.5	–
GAG A14T A58T	2.58	0.43	–
GAG A14G A20T	2.38	0.45	–
GAG A14T A20G	2.34	0.25	–
GAG A14T A20T	2.55	0.6	0.17
GAG A14C A20T	3.03	0.2	–
GAG G9A T19G A58C	6.03	0.25	–
TAG G15A	4.93	0.3	–
TAG G15C	5.93	0.5	–
GAG A14G G18A	6.26	0.71	–
GAG A14G G18C	3.45	0.5	–
GAG A58C T59C	5.64	0.38	–
GAG A58C T59A	1.3	0.5	–
AAG A14C G17T	3.93	0.6	–
GAG G9A G15A	0.928	0.67	–

As entered above.
In tRNA 3' processing efficiency [2], TAG A14T T19C reads 0.56
In tRNA Pol-III promoter activity (log2) [1], GAG A20C reads 2.37
